Measured values reported in the supplement of paper PMC5836539.
± gives the standard deviation of the averaged measurements. Single values are uncertain here, since repeats match poorly.

Protein sequences, listed by entry. Tags and fused reporters are not part of them. Lines headed by an entry give the natural chain unless they say otherwise; changes in a name come on top.
UniProt Q16655, whole entry, looked up: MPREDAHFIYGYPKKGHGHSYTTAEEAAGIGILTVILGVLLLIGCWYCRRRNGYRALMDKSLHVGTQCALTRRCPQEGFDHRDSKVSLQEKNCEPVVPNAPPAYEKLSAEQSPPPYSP
UniProt O43572: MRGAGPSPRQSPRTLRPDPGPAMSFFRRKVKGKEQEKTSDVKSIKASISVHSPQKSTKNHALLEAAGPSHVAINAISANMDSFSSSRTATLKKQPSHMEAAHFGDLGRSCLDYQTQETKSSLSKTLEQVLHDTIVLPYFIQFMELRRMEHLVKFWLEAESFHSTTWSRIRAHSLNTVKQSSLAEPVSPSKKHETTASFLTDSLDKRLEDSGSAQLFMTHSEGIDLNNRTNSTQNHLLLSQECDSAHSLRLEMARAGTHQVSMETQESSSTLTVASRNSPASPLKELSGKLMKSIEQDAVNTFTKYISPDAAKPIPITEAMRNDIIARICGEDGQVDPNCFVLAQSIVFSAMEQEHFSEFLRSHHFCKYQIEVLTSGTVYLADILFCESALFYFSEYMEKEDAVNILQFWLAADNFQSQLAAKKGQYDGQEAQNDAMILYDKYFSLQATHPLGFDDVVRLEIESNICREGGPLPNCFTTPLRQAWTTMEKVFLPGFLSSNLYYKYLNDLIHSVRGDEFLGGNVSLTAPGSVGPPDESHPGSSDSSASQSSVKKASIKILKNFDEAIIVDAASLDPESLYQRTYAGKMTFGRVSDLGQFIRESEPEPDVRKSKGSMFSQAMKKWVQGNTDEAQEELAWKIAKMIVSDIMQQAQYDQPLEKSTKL
UniProt O60841: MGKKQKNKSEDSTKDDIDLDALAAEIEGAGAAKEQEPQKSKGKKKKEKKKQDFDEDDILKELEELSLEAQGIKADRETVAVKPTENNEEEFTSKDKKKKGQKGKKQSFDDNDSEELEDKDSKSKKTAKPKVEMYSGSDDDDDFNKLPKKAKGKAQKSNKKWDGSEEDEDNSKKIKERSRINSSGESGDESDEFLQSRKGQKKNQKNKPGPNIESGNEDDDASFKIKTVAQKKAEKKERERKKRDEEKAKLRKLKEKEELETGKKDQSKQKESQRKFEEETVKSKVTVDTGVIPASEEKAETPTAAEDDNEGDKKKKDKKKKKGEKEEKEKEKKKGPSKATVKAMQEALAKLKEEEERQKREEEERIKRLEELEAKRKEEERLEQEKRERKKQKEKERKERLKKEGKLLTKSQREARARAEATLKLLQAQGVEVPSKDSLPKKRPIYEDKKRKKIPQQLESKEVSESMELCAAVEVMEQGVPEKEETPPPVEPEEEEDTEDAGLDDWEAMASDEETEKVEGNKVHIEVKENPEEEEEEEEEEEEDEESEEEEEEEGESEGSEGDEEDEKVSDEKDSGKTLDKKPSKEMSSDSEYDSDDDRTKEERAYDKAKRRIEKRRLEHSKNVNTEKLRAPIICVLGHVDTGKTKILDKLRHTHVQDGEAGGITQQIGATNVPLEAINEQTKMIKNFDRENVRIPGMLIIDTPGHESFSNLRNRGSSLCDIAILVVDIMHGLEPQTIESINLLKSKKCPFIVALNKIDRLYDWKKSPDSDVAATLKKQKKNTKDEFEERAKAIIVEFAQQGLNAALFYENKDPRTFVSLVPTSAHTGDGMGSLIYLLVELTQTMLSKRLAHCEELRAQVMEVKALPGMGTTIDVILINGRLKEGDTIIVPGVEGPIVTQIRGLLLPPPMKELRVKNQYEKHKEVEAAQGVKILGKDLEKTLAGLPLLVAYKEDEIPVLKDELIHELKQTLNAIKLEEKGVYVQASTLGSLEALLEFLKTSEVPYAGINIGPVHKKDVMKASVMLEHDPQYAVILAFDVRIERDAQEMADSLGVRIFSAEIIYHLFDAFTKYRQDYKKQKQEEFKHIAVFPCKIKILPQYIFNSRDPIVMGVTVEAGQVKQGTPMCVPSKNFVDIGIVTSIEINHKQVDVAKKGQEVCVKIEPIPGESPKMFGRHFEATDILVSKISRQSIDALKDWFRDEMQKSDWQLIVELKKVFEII
UniProt Q9UQ35: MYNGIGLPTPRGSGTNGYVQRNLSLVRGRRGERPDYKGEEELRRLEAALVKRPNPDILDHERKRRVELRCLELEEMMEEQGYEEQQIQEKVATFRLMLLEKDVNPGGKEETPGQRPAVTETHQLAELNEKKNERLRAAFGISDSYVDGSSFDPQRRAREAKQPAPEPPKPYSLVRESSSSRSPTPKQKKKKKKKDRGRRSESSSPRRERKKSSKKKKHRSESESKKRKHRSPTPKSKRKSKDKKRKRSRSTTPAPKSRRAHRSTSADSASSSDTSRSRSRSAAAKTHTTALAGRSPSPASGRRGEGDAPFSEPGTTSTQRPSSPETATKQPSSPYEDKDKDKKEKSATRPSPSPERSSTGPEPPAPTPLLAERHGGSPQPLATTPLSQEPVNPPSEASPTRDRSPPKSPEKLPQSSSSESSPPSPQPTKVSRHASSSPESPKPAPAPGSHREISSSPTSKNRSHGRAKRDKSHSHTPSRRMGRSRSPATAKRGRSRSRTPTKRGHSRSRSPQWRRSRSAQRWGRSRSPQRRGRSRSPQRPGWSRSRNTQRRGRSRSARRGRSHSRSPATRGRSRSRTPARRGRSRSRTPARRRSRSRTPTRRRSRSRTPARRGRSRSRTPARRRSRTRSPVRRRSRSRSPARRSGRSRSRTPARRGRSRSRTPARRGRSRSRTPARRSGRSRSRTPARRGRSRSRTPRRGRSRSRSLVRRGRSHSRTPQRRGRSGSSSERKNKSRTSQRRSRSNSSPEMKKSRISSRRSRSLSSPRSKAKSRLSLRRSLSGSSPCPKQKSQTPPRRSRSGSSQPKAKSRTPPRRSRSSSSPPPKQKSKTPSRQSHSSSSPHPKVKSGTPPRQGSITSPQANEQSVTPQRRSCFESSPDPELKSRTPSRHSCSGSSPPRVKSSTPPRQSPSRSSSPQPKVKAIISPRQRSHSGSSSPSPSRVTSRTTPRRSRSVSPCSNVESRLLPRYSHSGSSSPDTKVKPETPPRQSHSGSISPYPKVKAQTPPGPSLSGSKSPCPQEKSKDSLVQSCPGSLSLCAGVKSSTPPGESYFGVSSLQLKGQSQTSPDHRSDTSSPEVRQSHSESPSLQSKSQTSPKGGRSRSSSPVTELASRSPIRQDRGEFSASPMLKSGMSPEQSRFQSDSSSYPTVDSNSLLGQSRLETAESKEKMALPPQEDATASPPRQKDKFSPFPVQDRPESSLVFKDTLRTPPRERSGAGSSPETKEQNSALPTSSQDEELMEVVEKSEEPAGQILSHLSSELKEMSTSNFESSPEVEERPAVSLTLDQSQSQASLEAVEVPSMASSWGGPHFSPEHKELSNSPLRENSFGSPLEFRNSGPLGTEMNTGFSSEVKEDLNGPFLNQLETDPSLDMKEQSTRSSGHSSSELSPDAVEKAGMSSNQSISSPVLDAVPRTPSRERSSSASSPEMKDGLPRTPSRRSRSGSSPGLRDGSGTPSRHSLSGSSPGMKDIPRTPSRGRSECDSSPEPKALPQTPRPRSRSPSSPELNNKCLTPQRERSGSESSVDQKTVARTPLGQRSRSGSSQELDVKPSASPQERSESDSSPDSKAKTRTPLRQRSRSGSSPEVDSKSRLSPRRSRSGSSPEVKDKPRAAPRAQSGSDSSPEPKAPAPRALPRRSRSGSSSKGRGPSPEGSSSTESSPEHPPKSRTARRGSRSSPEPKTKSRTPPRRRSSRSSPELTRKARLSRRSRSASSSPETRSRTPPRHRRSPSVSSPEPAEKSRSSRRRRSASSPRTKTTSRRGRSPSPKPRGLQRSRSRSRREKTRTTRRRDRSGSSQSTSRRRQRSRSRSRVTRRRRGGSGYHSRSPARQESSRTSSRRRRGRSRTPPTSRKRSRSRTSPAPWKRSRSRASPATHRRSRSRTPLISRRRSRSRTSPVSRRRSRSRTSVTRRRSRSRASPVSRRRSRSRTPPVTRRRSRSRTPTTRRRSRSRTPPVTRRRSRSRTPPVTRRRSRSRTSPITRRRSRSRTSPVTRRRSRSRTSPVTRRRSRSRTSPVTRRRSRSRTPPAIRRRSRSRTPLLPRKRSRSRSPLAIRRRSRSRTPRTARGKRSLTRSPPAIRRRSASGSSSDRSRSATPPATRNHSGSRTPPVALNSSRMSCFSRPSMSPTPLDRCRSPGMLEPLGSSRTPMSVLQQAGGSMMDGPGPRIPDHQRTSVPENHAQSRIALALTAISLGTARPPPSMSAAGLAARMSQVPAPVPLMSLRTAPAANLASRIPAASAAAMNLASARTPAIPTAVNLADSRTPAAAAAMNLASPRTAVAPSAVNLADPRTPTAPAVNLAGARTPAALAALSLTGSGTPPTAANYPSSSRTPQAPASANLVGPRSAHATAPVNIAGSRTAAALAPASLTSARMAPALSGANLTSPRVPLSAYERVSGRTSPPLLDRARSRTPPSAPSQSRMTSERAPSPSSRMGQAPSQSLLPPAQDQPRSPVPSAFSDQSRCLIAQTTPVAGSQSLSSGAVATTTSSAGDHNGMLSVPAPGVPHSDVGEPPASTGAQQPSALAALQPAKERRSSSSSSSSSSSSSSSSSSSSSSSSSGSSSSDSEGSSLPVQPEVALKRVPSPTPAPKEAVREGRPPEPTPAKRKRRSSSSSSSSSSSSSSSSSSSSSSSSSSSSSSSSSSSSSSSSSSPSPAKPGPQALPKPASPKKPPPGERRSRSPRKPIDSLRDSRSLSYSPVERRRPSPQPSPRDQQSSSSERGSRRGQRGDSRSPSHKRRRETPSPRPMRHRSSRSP
UniProt P00441, whole entry, looked up: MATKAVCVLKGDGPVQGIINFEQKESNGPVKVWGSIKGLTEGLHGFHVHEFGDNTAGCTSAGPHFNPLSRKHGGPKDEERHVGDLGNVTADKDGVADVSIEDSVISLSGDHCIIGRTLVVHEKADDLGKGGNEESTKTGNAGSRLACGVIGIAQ
UniProt Q7Z309: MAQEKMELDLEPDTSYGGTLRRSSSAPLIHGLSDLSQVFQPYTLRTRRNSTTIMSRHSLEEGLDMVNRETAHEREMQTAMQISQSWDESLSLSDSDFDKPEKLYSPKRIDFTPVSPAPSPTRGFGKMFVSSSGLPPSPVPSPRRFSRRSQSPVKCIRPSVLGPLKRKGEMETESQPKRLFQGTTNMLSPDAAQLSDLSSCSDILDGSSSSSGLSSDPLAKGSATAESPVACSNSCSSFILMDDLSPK
UniProt Q9H8W4: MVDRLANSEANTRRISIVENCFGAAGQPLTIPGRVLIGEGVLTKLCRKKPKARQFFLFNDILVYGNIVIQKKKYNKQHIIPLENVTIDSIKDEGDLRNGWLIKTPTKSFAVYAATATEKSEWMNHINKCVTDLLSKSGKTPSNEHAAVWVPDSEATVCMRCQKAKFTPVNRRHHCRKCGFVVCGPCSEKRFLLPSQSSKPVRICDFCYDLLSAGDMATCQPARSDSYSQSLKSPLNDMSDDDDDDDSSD
UniProt P27816: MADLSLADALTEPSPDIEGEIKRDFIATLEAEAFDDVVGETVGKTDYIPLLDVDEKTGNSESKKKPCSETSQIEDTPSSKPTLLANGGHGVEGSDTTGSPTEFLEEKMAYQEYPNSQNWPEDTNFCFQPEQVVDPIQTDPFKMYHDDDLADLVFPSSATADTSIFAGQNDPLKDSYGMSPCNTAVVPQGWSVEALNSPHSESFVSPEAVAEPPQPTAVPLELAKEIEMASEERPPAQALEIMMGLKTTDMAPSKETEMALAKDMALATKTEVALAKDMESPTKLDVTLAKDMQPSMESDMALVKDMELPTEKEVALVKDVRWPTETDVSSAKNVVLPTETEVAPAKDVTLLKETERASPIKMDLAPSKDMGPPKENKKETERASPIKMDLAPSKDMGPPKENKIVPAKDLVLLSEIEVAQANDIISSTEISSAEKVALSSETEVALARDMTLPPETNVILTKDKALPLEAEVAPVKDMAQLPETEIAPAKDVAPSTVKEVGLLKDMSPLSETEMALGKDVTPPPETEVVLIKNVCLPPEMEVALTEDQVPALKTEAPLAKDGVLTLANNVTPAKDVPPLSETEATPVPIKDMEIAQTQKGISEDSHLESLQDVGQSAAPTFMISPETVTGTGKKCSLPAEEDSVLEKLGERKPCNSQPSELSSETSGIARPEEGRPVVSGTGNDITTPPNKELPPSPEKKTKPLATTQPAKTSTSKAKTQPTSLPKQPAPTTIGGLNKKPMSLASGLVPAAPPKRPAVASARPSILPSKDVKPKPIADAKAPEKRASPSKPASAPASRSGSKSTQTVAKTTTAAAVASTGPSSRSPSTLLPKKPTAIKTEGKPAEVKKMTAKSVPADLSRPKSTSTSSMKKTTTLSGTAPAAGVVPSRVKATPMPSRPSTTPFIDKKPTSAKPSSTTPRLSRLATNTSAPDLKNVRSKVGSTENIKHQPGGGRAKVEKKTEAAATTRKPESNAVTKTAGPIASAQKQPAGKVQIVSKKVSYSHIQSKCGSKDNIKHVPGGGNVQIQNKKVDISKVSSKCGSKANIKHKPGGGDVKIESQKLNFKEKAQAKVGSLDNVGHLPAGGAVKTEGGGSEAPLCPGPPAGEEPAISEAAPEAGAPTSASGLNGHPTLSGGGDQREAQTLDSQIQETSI

compound: CC[C@@H](C)Nc1cc(C(=O)N[C@H]2C[C@H]3CC[C@@H](C2)N3c2ccc(C(=O)C3CC3)cn2)c(C)cc1C(N)=O [XL888]; test: phosphopeptide melting temperature shift (XL888 minus DMSO); higher = stabilised by drug treatment; conditions: 100 µM; treatment time 2 h; layout: intact cells; SK-Mel 28
Experimental: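 Phospho-TPP in intact SK-Mel 28 cells treated with 100 uM XL888 or DMSO for 2 h, heated at 10 temperatures (37-67 C) for 3 min, soluble fraction TMT10plex-labelled and TiO2 phospho-enriched. Melting curves were fitted per phosphopeptide; the value is the melting point difference (drug minus vehicle) in each of two biological replicates.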

Row | Target | phosphopeptide melting temperature shift [°C]
1 | GIGYF2 phosphosite_335 (phosphosite position: 335) (UniProt Q6Y7W6) | -0.828
2 | SRRM1 phosphosite_560 (phosphosite position: 560) (UniProt Q8IYB3) | 0.0984 ± 0.81
3 | TNS1 phosphosite_1297 (phosphosite position: 1297) (UniProt Q9HBL0) | 1.51 ± 2.3
4 | POLR1A phosphosite_1429 (phosphosite position: 1429) (UniProt O95602) | -0.57
5 | UniProt Q9UPN4-3_phosphosite_381 (phosphosite position: 381) | 5.01
6 | UniProt Q16655_phosphosite_87 (phosphosite position: 87) | 2.14 ± 1.2
7 | UniProt Q96NE9-3_phosphosite_186 (phosphosite position: 186) | 0.745
8 | AKAP10 phosphosite_187 (phosphosite position: 187) (UniProt O43572) | 2.08
9 | UniProt P48634_phosphosite_1089 (phosphosite position: 1089) | 3.15 ± 1.7
10 | UniProt Q7Z6Z7-2_phosphosite_3646 (phosphosite position: 3646) | 5.15
11 | UniProt O75717-2_phosphosite_284 (phosphosite position: 284) | 1.65 ± 1
12 | PPFIBP2 phosphosite_512 (phosphosite position: 512) (UniProt Q8ND30) | 0.12 ± 0.034
13 | UniProt P18206-2_phosphosite_822 (phosphosite position: 822) | -1.24
14 | EIF5B phosphosite_107 (phosphosite position: 107) (UniProt O60841) | 0.488 ± 0.47
15 | PSMD2 phosphosite_16 (phosphosite position: 16) (UniProt Q13200) | 0.0951
16 | KLC2 phosphosite_151 (phosphosite position: 151) (UniProt Q9H0B6) | 1.41
17 | UniProt Q13469-3_phosphosite_343 (phosphosite position: 343) | 2.48
18 | UniProt Q6GYQ0-3_phosphosite_907 (phosphosite position: 907) | 0.992 ± 0.17
19 | UniProt Q15365_phosphosite_173 (phosphosite position: 173) | 1.13 ± 0.22
20 | SRRM2 phosphosite_983 (phosphosite position: 983) (UniProt Q9UQ35) | 8.68 ± 2.1
21 | SOD1 phosphosite_108 (phosphosite position: 108) (UniProt P00441) | 1.4
22 | UniProt Q5HYJ3-3_phosphosite_193 (phosphosite position: 193) | -0.854 ± 0.3
23 | UniProt Q15555-4_phosphosite_147 (phosphosite position: 147) | 1.61 ± 0.75

Row | Target | phosphopeptide melting temperature shift [°C]
24 | SRRM2 phosphosite_1674 (phosphosite position: 1674) (UniProt Q9UQ35) | 4.73
25 | UniProt Q01484-5_phosphosite_1729 (phosphosite position: 1729) | 2.48 ± 0.7
26 | CTR9 phosphosite_1081 (phosphosite position: 1081) (UniProt Q6PD62) | 0.91
27 | ZFP36L2 phosphosite_490 (phosphosite position: 490) (UniProt P47974) | -2.9
28 | UniProt Q5SSJ5-2_phosphosite_117 (phosphosite position: 117) | -0.623
29 | SCAF1 phosphosite_239 (phosphosite position: 239) (UniProt Q9H7N4) | -0.74 ± 2.5
30 | MTMR6 phosphosite_561 (phosphosite position: 561) (UniProt Q9Y217) | 1.28
31 | UniProt Q66K74-2_phosphosite_614 (phosphosite position: 614) | 1.45 ± 1.3
32 | TP53BP1 phosphosite_660 (phosphosite position: 660) (UniProt Q12888) | 0.284
33 | UniProt Q96TA1-2_phosphosite_628 (phosphosite position: 628) | 0.219 ± 0.41
34 | UniProt Q9UPQ9-1_phosphosite_567 (phosphosite position: 567) | -0.153
35 | UniProt Q9NRL2-2_phosphosite_699 (phosphosite position: 699) | 0.501
36 | MCM3 phosphosite_681 (phosphosite position: 681) (UniProt P25205) | 0.0477 ± 2.1
37 | SRRM1 phosphosite_402 (phosphosite position: 402) (UniProt Q8IYB3) | -1.45
38 | IP6K1 phosphosite_127 (phosphosite position: 127) (UniProt Q92551) | -0.612
39 | UniProt Q96F45-3_phosphosite_102 (phosphosite position: 102) | 3.38 ± 1.2
40 | DBN1 phosphosite_381 (phosphosite position: 381) (UniProt Q16643) | -1.38 ± 0.54
41 | GNL1 phosphosite_50 (phosphosite position: 50) (UniProt P36915) | 0.265
42 | SRRM2 phosphosite_322 (phosphosite position: 322) (UniProt Q9UQ35) | 5.15 ± 2.4
43 | UniProt Q9BTA9-5_phosphosite_408 (phosphosite position: 408) | 4.74
44 | UniProt Q86YP4-2_phosphosite_107 (phosphosite position: 107) | 1.05
45 | UniProt Q96S53-3_phosphosite_427 (phosphosite position: 427) | 0.699 ± 0.29
46 | UniProt Q9H7C4-2_phosphosite_325 (phosphosite position: 325) | -1.65

Row | Target | phosphopeptide melting temperature shift [°C]
47 | UniProt Q14677-2_phosphosite_209 (phosphosite position: 209) | 2.69 ± 0.56
48 | MCM3 phosphosite_713 (phosphosite position: 713) (UniProt P25205) | 0.285 ± 0.32
49 | FAM122B phosphosite_119 (phosphosite position: 119) (UniProt Q7Z309) | -0.632 ± 1.1
50 | UniProt Q01484-5_phosphosite_825 (phosphosite position: 825) | 1.06 ± 0.37
51 | UniProt O95819-2_phosphosite_872 (phosphosite position: 872) | -0.382
52 | UniProt Q96EZ8-4_phosphosite_91 (phosphosite position: 91) | 4.87
53 | UniProt Q16637-4_phosphosite_31 (phosphosite position: 31) | 0.0256 ± 0.65
54 | UniProt Q13017-2_phosphosite_1176 (phosphosite position: 1176) | 2.53
55 | UniProt Q96K76-2_phosphosite_744 (phosphosite position: 744) | 3.2
56 | UniProt O75376-2_phosphosite_158 (phosphosite position: 158) | 2.74 ± 4.5
57 | PLEKHF2 phosphosite_16 (phosphosite position: 16) (UniProt Q9H8W4) | 0.94
58 | SNX8 phosphosite_452 (phosphosite position: 452) (UniProt Q9Y5X2) | 1.89
59 | MAP4 phosphosite_624 (phosphosite position: 624) (UniProt P27816) | -0.559
60 | PRPF4B phosphosite_294 (phosphosite position: 294) (UniProt Q13523) | -0.245
61 | UniProt Q9ULL8-2_phosphosite_183 (phosphosite position: 183) | 0.107
62 | RBM25 phosphosite_703 (phosphosite position: 703) (UniProt P49756) | 1.65
63 | UniProt Q6VMQ6-2_phosphosite_113 (phosphosite position: 113) | 0.905
64 | UniProt Q92974-3_phosphosite_904 (phosphosite position: 904) | 1.49 ± 0.42
65 | UniProt Q13428-6_phosphosite_171 (phosphosite position: 171) | -0.258 ± 0.17
66 | MAP1B phosphosite_1298 (phosphosite position: 1298) (UniProt P46821) | 0.0994 ± 0.45
67 | UniProt Q86UV5-2_phosphosite_886 (phosphosite position: 886) | 2.23

Given with tabs: part of the list above
Row	Target	phosphopeptide melting temperature shift [°C]
6	UniProt Q16655_phosphosite_87 (phosphosite position: 87)	2.14 ± 1.2
11	UniProt O75717-2_phosphosite_284 (phosphosite position: 284)	1.65 ± 1
16	KLC2 phosphosite_151 (phosphosite position: 151) (UniProt Q9H0B6)	1.41
18	UniProt Q6GYQ0-3_phosphosite_907 (phosphosite position: 907)	0.992 ± 0.17
20	SRRM2 phosphosite_983 (phosphosite position: 983) (UniProt Q9UQ35)	8.68 ± 2.1
22	UniProt Q5HYJ3-3_phosphosite_193 (phosphosite position: 193)	-0.854 ± 0.3
23	UniProt Q15555-4_phosphosite_147 (phosphosite position: 147)	1.61 ± 0.75
24	SRRM2 phosphosite_1674 (phosphosite position: 1674) (UniProt Q9UQ35)	4.73
25	UniProt Q01484-5_phosphosite_1729 (phosphosite position: 1729)	2.48 ± 0.7
28	UniProt Q5SSJ5-2_phosphosite_117 (phosphosite position: 117)	-0.623
30	MTMR6 phosphosite_561 (phosphosite position: 561) (UniProt Q9Y217)	1.28
31	UniProt Q66K74-2_phosphosite_614 (phosphosite position: 614)	1.45 ± 1.3
38	IP6K1 phosphosite_127 (phosphosite position: 127) (UniProt Q92551)	-0.612
40	DBN1 phosphosite_381 (phosphosite position: 381) (UniProt Q16643)	-1.38 ± 0.54
42	SRRM2 phosphosite_322 (phosphosite position: 322) (UniProt Q9UQ35)	5.15 ± 2.4
45	UniProt Q96S53-3_phosphosite_427 (phosphosite position: 427)	0.699 ± 0.29
46	UniProt Q9H7C4-2_phosphosite_325 (phosphosite position: 325)	-1.65
47	UniProt Q14677-2_phosphosite_209 (phosphosite position: 209)	2.69 ± 0.56
55	UniProt Q96K76-2_phosphosite_744 (phosphosite position: 744)	3.2
58	SNX8 phosphosite_452 (phosphosite position: 452) (UniProt Q9Y5X2)	1.89
